In experiment [1] the target is Strep-Egr^146–409 Arg396Ala-Arg401Ala (Drosophila melanogaster) (UniProt Q8MUJ1). The experiment in a line: pull-down; 2 μM strep-tagged Egr^146–409 adsorbed on Strep-tactin beads, 10 μM Grnd^30–97 in solution, 1 h at 4 °C, 0.01 M Hepes pH 7.5, 0.1 M NaCl, 5% glycerol, 0.05% Tween, 0.5 mM EDTA; Coomassie staining; both purified.
Experiment [2] has as its target Strep-Egr^146–409 Asp337Ala (Drosophila melanogaster) (UniProt Q8MUJ1). The description is as above.

By UniProt entry, the sequences of proteins in these tests, tags left out. Where a name states a change or a piece, a line headed by the entry shows the natural chain unless it says otherwise.
UniProt Q8MUJ1: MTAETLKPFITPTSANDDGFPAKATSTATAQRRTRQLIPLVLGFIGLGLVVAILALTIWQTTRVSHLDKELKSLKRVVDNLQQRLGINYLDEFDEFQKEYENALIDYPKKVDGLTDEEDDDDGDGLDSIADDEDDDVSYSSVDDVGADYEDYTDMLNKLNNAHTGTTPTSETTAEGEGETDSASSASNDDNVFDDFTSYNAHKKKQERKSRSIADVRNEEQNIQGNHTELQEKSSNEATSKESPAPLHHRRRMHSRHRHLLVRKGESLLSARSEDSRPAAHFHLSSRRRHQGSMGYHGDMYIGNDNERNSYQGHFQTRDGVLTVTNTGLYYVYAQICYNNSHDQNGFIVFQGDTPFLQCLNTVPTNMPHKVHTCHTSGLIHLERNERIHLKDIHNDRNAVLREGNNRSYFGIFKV

Results are given in words; binding and its absence hold for the method and conditions named.

B1: Grnd^30–97 (extracellular domain of Grindelwald) (domain or fragment, Drosophila melanogaster, UniProt Q9VJ83 30-97, looked up)
chain: GESRDCHGTICHPVNEFCYVATERCHPCIEVCNNQTHNYDAFLCAKECSAYKTFEPLKAEMLDIQNTQ
notes: Grindelwald (Grnd), Drosophila melanogaster, extracellular domain, residues 30-97; pETM14 vector; His6-tag removed with PreScission protease; Monomer by static light scattering; also called wild-type Grnd^30–97; source: E. coli SHuffle B cells (NEB), purified (Ni HiTrap, PreScission, Resource-Q); not shown: His6, N-terminal, cleaved
Consider B1, for which the binding entry in experiment [1] and in experiment [2] was “no binding (tested: 10 μM Grnd^30–97 on 2 μM Egr^146–409)” each time.

Values taken from PMC8024323, “Drosophila TNFRs Grindelwald and Wengen bind Eiger with different affinities and promote distinct cellular functions” (Nature Communications, 2021).
